Paper PMC9344665
No constants are given. Whether binding was seen depends on the method and setting. Some results given as binding are weak or reduced against the parent protein; the word gives no strength. Where a sequence is shown, tags or fusion partners need not be part of it.

How the values were obtained:
Test in all cases: co-purification of coexpressed proteins (Ni-NTA, heparin, size-exclusion chromatography); His6-FARSA and untagged FARSB coexpressed in E. coli Rosetta (DE3); lysate on Ni-NTA (20 mM Tris-HCl pH 8.5, 500 mM NaCl), His6-tag removed with HRV3C, HiTrap Heparin HP with a NaCl gradient, then SEC in 20 mM HEPES-NaOH pH 7.5, 150 mM NaCl; SDS-PAGE of fractions
[1] = molecular target: T1, FARSA E418D variant (human) (UniProt Q9Y285)
T1 sequence: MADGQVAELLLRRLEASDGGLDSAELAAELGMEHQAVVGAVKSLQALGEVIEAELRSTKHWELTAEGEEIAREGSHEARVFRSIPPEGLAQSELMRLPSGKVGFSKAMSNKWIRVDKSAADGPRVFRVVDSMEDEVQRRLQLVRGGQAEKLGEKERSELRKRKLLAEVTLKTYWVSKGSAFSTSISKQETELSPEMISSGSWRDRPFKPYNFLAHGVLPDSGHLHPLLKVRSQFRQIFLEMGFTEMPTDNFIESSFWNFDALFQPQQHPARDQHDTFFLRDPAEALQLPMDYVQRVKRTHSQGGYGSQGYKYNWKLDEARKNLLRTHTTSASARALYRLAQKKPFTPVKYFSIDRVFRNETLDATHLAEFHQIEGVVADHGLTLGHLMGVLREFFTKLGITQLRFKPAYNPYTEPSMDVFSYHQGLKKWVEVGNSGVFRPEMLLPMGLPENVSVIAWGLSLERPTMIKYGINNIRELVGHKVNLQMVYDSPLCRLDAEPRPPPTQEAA

[2] = molecular target: T2, FARSA F256L variant (human) (UniProt Q9Y285)
T2 sequence: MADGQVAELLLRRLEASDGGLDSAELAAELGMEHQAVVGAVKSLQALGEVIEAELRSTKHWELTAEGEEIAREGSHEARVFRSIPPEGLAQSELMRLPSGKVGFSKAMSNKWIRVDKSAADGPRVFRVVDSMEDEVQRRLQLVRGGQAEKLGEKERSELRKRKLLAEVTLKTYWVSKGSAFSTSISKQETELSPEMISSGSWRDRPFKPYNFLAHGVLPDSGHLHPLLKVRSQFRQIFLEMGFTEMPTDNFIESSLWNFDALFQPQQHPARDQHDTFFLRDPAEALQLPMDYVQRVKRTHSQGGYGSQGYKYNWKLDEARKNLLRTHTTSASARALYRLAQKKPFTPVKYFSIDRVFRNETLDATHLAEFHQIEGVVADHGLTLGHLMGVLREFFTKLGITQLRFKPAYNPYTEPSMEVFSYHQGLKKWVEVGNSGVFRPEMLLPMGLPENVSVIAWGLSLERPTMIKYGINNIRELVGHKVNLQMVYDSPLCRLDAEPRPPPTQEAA

[3] = molecular target: T3, FARSA R295W variant (human) (UniProt Q9Y285)
T3 sequence: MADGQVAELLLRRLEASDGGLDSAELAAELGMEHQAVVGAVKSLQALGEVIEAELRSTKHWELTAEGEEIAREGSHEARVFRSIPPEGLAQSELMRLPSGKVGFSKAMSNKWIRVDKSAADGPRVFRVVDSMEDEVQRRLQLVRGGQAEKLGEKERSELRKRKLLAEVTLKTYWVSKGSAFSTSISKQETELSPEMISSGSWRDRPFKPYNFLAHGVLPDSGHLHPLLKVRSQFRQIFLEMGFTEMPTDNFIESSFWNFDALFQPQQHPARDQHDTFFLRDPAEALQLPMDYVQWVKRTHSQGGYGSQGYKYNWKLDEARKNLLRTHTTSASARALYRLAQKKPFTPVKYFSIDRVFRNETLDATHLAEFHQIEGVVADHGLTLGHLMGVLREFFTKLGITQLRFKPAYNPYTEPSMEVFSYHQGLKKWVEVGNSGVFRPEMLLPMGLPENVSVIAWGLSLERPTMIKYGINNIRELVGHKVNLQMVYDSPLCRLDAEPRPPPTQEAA

[4] = molecular target: T4, FARSA R475Q variant (human) (UniProt Q9Y285)
T4 sequence: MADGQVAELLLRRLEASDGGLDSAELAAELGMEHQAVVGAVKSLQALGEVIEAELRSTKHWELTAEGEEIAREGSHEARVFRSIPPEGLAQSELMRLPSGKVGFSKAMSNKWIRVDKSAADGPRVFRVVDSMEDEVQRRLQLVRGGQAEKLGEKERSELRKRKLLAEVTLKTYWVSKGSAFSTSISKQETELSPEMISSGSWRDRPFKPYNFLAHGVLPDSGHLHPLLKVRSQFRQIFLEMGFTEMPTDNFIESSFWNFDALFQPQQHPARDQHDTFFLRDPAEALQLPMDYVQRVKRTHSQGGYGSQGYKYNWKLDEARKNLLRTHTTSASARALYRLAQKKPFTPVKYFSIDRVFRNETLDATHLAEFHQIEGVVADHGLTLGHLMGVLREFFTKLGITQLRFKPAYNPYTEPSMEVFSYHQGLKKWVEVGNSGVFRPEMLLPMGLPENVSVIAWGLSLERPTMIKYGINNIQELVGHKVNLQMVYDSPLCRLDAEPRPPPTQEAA

Measured: binding

B1: FARSB (β subunit of cytosolic phenylalanyl-tRNA synthetase FARS1), no affinity tag (enzyme, UniProt Q9NSD9 1-584)
chain: MPTVSVKRDLLFQALGRTYTDEEFDELCFEFGLELDEITSEKEIISKEQGNVKAAGASDVVLYKIDVPANRYDLLCLEGLVRGLQVFKERIKAPVYKRVMPDGKIQKLIITEETAKIRPFAVAAVLRNIKFTKDRYDSFIELQEKLHQNICRKRALVAIGTHDLDTLSGPFTYTAKRPSDIKFKPLNKTKEYTACELMNIYKTDNHLKHYLHIIENKPLYPVIYDSNGVVLSMPPIINGDHSRITVNTRNIFIECTGTDFTKAKIVLDIIVTMFSEYCENQFTVEAAEVVFPNGKSHTFPELAYRKEMVRADLINKKVGIRETPENLAKLLTRMYLKSEVIGDGNQIEIEIPPTRADIIHACDIVEDAAIAYGYNNIQMTLPKTYTIANQFPLNKLTELLRHDMAAAGFTEALTFALCSQEDIADKLGVDISATKAVHISNPKTAEFQVARTTLLPGLLKTIAANRKMPLPLKLFEISDIVIKDSNTDVGAKNYRHLCAVYYNKNPGFEIIHGLLDRIMQLLDVPPGEDKGGYVIKASEGPAFFPGRCAEIFARGQSVGKLGVLHPDVITKFELTMPCSSLEIN
binds: all assays above
